{"sequences": {"note": "Sequences of proteins named here, by UniProt entry; tags and fusion partners are left off. A change or cut given only in a name is not applied to a line headed by its entry.", "UniProt P39051": "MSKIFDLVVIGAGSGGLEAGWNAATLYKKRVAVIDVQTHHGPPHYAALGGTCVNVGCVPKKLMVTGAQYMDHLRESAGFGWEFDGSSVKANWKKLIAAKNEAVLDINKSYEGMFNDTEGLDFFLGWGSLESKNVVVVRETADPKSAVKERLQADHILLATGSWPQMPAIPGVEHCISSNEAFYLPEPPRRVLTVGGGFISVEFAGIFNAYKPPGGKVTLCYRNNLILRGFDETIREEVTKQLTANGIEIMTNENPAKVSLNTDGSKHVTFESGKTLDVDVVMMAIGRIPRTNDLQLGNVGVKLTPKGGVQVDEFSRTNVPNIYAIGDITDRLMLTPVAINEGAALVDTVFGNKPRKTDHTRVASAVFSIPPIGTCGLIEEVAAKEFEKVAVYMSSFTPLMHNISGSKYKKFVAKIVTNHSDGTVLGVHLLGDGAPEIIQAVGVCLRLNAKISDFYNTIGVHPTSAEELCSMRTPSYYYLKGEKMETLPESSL"}, "source": "ChEMBL document CHEMBL3396948", "about": "“Dibenzosuberyl substituted polyamines and analogs of clomipramine as effective inhibitors of trypanothione reductase; molecular docking, and assessment of trypanocidal activities” (Bioorg Med Chem, 2015)", "biological_target": "Trypanothione reductase (Trypanosoma brucei brucei, UniProt P39051)", "assay": "Inhibition of recombinant Trypanosoma brucei brucei strain S427 trypanothione reductase assessed as reduction of trypanothione disulphide by 412 nm assay", "data": [{"smiles": "CN(C)CCCN1c2ccccc2CCc2ccc(Cl)cc21", "note": "[CLOMIPRAMINE]", "values": [{"measurement": "IC50", "result": 3.4, "unit": "µM"}]}]}
